At least one compound was matched to its structure with a doubt left.
Test system: K562 cells
Experiment: GYPA gene expression in K562 cells (quantitative real-time PCR)
Format: cell-based, human
Settings: olive leaf components alone or in combination
Method: K562 cells (Riken Cell Bank) were seeded in a 6-well plate using RPMI 1640 Medium (Gibco Waltham, MA, USA) containing 10% FBS and 1% penicillin/streptomycin solution added to a cell concentration of 2×10^4 cell/ml, and the cells were cultured in 5% CO2 at 37° C., 95% humidification. On the following day, the medium was replaced with a mixed solution of oleuropein (OP) and oleuroside (OS), and reaction was conducted for 6 days. […]
After 6 days of reaction, the medium was removed from the cells, Isogen (Nippon Gene Co., Ltd.) was added for sonication, and the total RNA was extracted according to the manufacturer's protocol. The RNA concentration was measured using a NanoDrop 2000 spectrometer (Thermo Scientific, USA). […] Quantitative real-time PCR was carried out for gene expression analysis. […] ACTB (Hs03023880 g1 was used as the endogenous standard. For Taqman real-time PCR amplification reaction and gene expression level quantitation, 10 μL of TaqMan Gene Expression Master Mix (Applied Biosystems), 1 μL of each primer and probe set and 9 μL of cDNA (final cDNA concentration: […]) were mixed, and an AB 7500 Fast Real-Time PCR system (Applied Biosystems) was used. The thermal cycle was 2 minutes at 50° C., 10 minutes at 95° C., 15 seconds at 95° C. (50 cycles) and 1 minute at 60° C. The gene expression levels were calculated by the ΔΔCt method. […]

OCCc1ccc(O)c(O)c1 [HT, Hydroxytyrosol]
GYPA expression increase: No
